pIC50: −log10 of the molar value. Where a name gives a salt, the structure may show the parent alone. For at least one compound, name, drawing or mass did not settle the structure.
Test system: 5HT uptake
Test: Inhibition of 5HT uptake in vitro (synaptosomal uptake of 3H-serotonin, rat cortical synaptosomes)
Format: biochemical, rat (male Sprague-Dawley)
Conditions: 50 nM 3H-5HT, 37° C., 5 min
Procedure: This general procedure is set forth by Wong et al., in Drug Development Research 6:397-403 (1985).
Male Sprague-Dawley rats (110-150 g) from Harlan Industries (Cumberland, Ind.) were fed Purina Chow ad libitum for at least 3 days before being used in the studies. Rats were killed by decapitation. Whole brains were removed and dissected. Cerebral cortex was homogenized in 9 volumes of a medium containing 0.32M sucrose and 10 mM glucose. Crude synaptosomal preparations were isolated after differential centrifugation at 1,000 g for 10 min. and 17,000 g for 28 min. The final pellets were suspended in the same medium and kept in ice until use within the same day.
Synaptosomal uptake of ^3 H-serotonin(^3 H-5-hydroxytryptamine, ^3 H-5HT) was determined as follows. Cortical synaptosomes (equivalent to 1 mg of protein) were incubated at 37° C. for 5 min in 1 ml of Krebs-bicarbonate medium containing also 10 mM glucose, 0.1 mM iproniazid, 1 mM ascorbic acid, 0.17 mM EDTA and 50 nM ^3 H-5HT The reaction mixture was immediately diluted with 2 ml of ice-chilled Krebs-bicarbonatebuffer and filtered under vacuum with a cell harvester (Brandel, Gaithersburg, Md.). […] Radioactivity was measured by a liquid scintillation spectrophotometer. […]

NC(CCOc1cccc2ccccc12)c1ccc2c(c1)OCO2 (stereo not shown) [Example 22, 1-[3,4-(Methylenedioxy)phenyl]-3-(1-naphthalenyloxy)propanamine oxalate]
pIC50: 6.89

From US5135947A, “1-phenyl-3-naphthalenyloxypropanamines and their use as selective serotonin reuptake inhibitors” (Eli Lilly and Company, priority 1990, dated 1992)
